Results published in PubChem BioAssay AID296 (DTP/NCI, 2004).
The list shows only some results of the screen, not a fair sample: it gathers tests that were run many times, whatever their T/C, doses with no T/C, and many T/C values between a quarter and a half above the control. Further doses and runs are listed elsewhere. T/C: endpoint of the treated group in % of that of the vehicle group. Schedule codes are those of the source, read here as Q, the interval in days (D) or hours (H), X, the number of doses. Some doses were run more than once; the values are given in rising order. Some T/C values are negative: the treated tumours shrank. Some T/C values are followed by the survivors on the day toxicity was checked, most often the fifth; where none is given, no animal had died by that day. Some doses have a count of surviving animals in place of a T/C: the source files T/C as zero there, which appears to mark a toxic dose or a test without result, not a measured value. Counts of survivors are from the toxicity check (mostly the fifth day) where no day follows; animals may have died later.

Tested on: MX-1 breast xenograft, nude mice, tumor weight T/C
Assay: NCI In Vivo Anticancer Drug Screen. Data for tumor model Human Mammary Carcinoma MX-1 Xenograft (intrarenal inoculation) in NU/NU Swiss (nude) mice
Conditions: T/C endpoint: mean tumor weight change, higher T/C = larger tumour; for T/C: evaluated on day 11
In short: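 Compound dosed to mice with transplantable tumor; vehicle group as control. Endpoint survival or tumour size, reported as T/C.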

[1] = dose: 120.0 mg/kg/injection, schedule: Q04DX003 (sc), vehicle: Klucel (hydroxypropylcellulose) (HPC)
[2] = dose: 400.0 mg/kg/injection, schedule: Q04DX003 (sc), vehicle: saline with Tween-80
[3] = dose: 48.0 mg/kg/injection, schedule: Q04DX003 (sc), vehicle: saline with Tween-80

**Q.** Which results are given for `Cc1[nH]c(=O)[nH]c(=O)c1N(CCF)CCCl`?
**A.** T/C (dose: 30.0 mg/kg/injection, schedule: Q04DX003 (sc), vehicle: Klucel (hydroxypropylcellulose) (HPC)): 1, 8, 9, 15, 44 % of control; T/C (dose: 60.0 mg/kg/injection, schedule: Q04DX003 (sc), vehicle: Klucel (hydroxypropylcellulose) (HPC)): -85, -81, -71 [4 of 6 alive on day 11], 4, 5 % of control; T/C [1]: -96 [4 of 6 alive on day 11] and -64 % of control [4 of 5 alive on day 11]; survivor count [1]: 0 of 6 on day 11 and 3 of 6 on day 11; survivor count (dose: 160.0 mg/kg/injection, schedule: Q04DX003 (sc), vehicle: Klucel (hydroxypropylcellulose) (HPC)): 0 of 6 on day 11, 1 of 6 on day 11, 2 of 6 on day 11; survivor count (dose: 240.0 mg/kg/injection, schedule: Q04DX003 (sc), vehicle: Klucel (hydroxypropylcellulose) (HPC)): 0 of 6 on day 11

**Q.** Which survivor count [2] does the source give for `CC(=O)N(C)c1ccc(Nc2cc(C)[nH]c3ccc4ncnc4c23)cc1` here?
**A.** 0 of 6 on day 11

**Q.** How did the T/C (dose: 150.0 mg/kg/injection, schedule: Q04DX003 (sc), vehicle: saline with Tween-80) turn out when `COc1cc2c3c(cccc3c1)C(=O)N(CCN(C)C)C2=O` was run?
**A.** 139 % of control

**Q.** And the survivor count (dose: 1200.0 mg/kg/injection, schedule: Q04DX003 (sc), vehicle: saline with Tween-80)?
**A.** 2 of 6 on day 11

**Q.** What does the source list for `Nc1ncn(C2CC(O)C(CO)O2)c(=O)n1` (configuration not stated)?
**A.** survivor count (dose: 0.4 mg/kg/injection, schedule: Q01DX010 (sc), vehicle: saline): 0 of 3 on day 11; survivor count (dose: 0.8 mg/kg/injection, schedule: Q01DX010 (sc), vehicle: saline): 0 of 3 on day 11; survivor count (dose: 1.6 mg/kg/injection, schedule: Q01DX010 (sc), vehicle: saline): 0 of 3 on day 11

**Q.** How did the survivor count (dose: 2400.0 mg/kg/injection, schedule: Q04DX003 (sc), vehicle: water) turn out when `Nc1nc2c(ncn2C2OC(CO)C(O)C2O)c(=O)[nH]1.Nc1nc2c(ncn2C2OC(CO)C(O)C2O)c(=O)[nH]1.[NH2-].[NH2-].[Pt+2]` (configuration not stated) was run?
**A.** 0 of 6 on day 11

**Q.** Which survivor count (dose: 32.0 mg/kg/injection, schedule: Q04DX003 (sc), vehicle: saline with Tween-80) does the source give for `COc1ccc(CC2C(=O)NC(C)C(=O)N(C)C3Cc4ccc(cc4)Oc4cc(ccc4O)CC(C(=O)NC(C)C(=O)NC(C)C(=O)N2C)N(C)C3=O)cc1` (configuration not stated) here?
**A.** 0 of 6 on day 11

**Q.** What about the survivor count [3] of the same molecule?
**A.** 0 of 6 on day 11

**Q.** And the survivor count (dose: 64.0 mg/kg/injection, schedule: Q04DX003 (sc), vehicle: saline with Tween-80)?
**A.** 0 of 6 on day 11

**Q.** `Nc1n[n+](-c2ccc(Cl)cc2)no1` was tested. Which survivor count (dose: 100.0 mg/kg/injection, schedule: Q04DX003 (sc), vehicle: water) did it give?
**A.** 2 of 6 on day 11

**Q.** And the survivor count (dose: 200.0 mg/kg/injection, schedule: Q04DX003 (sc), vehicle: water)?
**A.** 0 of 6 on day 11

**Q.** With `CCCCCNc1ncnc2c(C)[nH]nc12` as the molecule, how does the survivor count (dose: 300.0 mg/kg/injection, schedule: Q04DX003 (ip), vehicle: Klucel (hydroxypropylcellulose) (HPC)) read?
**A.** 2 of 6 on day 11

**Q.** What about the survivor count (dose: 600.0 mg/kg/injection, schedule: Q04DX003 (ip), vehicle: Klucel (hydroxypropylcellulose) (HPC)) of the same molecule?
**A.** 0 of 6 on day 11

**Q.** With `O=C1c2cccc3cc([N+](=O)[O-])cc(c23)C(=O)N1CCN1CCCC1` as the molecule, how does the survivor count (dose: 144.0 mg/kg/injection, schedule: Q04DX003 (sc), vehicle: saline with Tween-80) read?
**A.** 1 of 6 on day 11

**Q.** How did the survivor count (dose: 400.0 mg/kg/injection, schedule: Q01DX010 (sc), vehicle: saline) turn out when `Nc1nc(F)nc2c1ncn2C1OC(COP(=O)(O)O)C(O)C1O` (configuration not stated) was run?
**A.** 0 of 3 on day 11

**Q.** Which results are given for `O=C(O)CSc1c(Cl)c(=O)oc2ccc(Cl)cc12`?
**A.** survivor count (dose: 900.0 mg/kg/injection, schedule: Q04DX003 (sc), vehicle: Klucel (hydroxypropylcellulose) (HPC)): 1 of 6 on day 11 and 2 of 6 on day 11; survivor count (dose: 1200.0 mg/kg/injection, schedule: Q04DX003 (sc), vehicle: Klucel (hydroxypropylcellulose) (HPC)): 1 of 6 on day 11; survivor count (dose: 1800.0 mg/kg/injection, schedule: Q04DX003 (sc), vehicle: Klucel (hydroxypropylcellulose) (HPC)): 1 of 6 on day 11

**Q.** With `CC1=NN(c2cccc(S(=O)(=O)O)c2)C(=O)C1N=Nc1cc(Cl)cc(S(=O)(=O)O)c1O.CC1=NN(c2cccc(S(=O)(=O)O)c2)C(=O)C1N=Nc1cc(Cl)cc(S(=O)(=O)O)c1O.[Cr]` (configuration not stated) as the molecule, how does the survivor count (dose: 1200.0 mg/kg/injection, schedule: Q04DX003 (ip), vehicle: saline) read?
**A.** 0 of 6 on day 11

**Q.** Which survivor count [3] does the source give for `Cc1c(CNc2ccc(C(=O)NC(CC(=O)O)C(=O)O)cc2)ccc2nc(N)nc(N)c12` (configuration not stated) here?
**A.** 3 of 6 on day 11

**Q.** And the survivor count (dose: 96.0 mg/kg/injection, schedule: Q04DX003 (sc), vehicle: saline with Tween-80)?
**A.** 0 of 6 on day 11

**Q.** `CN(C)CCCNc1c2ccccc2nc2cccc([N+](=O)[O-])c12` was tested. Which survivor count (dose: 0.75 mg/kg/injection, schedule: Q04DX003 (sc), vehicle: saline) did it give?
**A.** 0 of 6 on day 11

**Q.** And the survivor count (dose: 1.5 mg/kg/injection, schedule: Q04DX003 (sc), vehicle: saline)?
**A.** 0 of 6 on day 11

**Q.** And the survivor count (dose: 3.0 mg/kg/injection, schedule: Q04DX003 (sc), vehicle: saline)?
**A.** 0 of 6 on day 11

**Q.** Which results are given for `CC12CCC3C(CCC4CC(OC(=O)Cc5ccc(N(CCCl)CCCl)cc5)CCC43C)C1CCC(=O)N2` (configuration not stated)?
**A.** survivor count (dose: 200.0 mg/kg/injection, schedule: Q04DX003 (sc), vehicle: saline with Tween-80): 3 of 6 on day 11; survivor count [2]: 0 of 6 on day 11 and 3 of 6 on day 11

**Q.** `CCCCCCCCSC1=C(Cl)C(=O)C(OC)=C(OC)C1=O` was tested. Which survivor count (dose: 288.0 mg/kg/injection, schedule: Q04DX003 (sc), vehicle: saline with Tween-80) did it give?
**A.** 1 of 6 on day 11

**Q.** With `c1cc(-c2cc3ccc(C4=NCCN4)cc3[nH]2)ccc1C1=NCCN1` as the molecule, how does the survivor count (dose: 200.0 mg/kg/injection, schedule: Q04DX003 (sc), vehicle: saline) read?
**A.** 0 of 6 on day 11

**Q.** With `CCOC(OCC)C(=O)OCC(=O)[C@]1(O)Cc2c(O)c3c(c(O)c2[C@@H](OC2CC(N)C(O)C(C)O2)C1)C(=O)c1c(OC)cccc1C3=O` (some centres not stated) as the molecule, how does the survivor count (dose: 8.0 mg/kg/injection, schedule: Q01DX010 (sc), vehicle: water) read?
**A.** 0 of 3 on day 11 and 1 of 3 on day 11

**Q.** How did the survivor count (dose: 20.0 mg/kg/injection, schedule: Q01DX010 (sc), vehicle: other) turn out when `CCN(CC)CCCNc1nccc2c(C)c3[nH]c4ccncc4c3cc12` was run?
**A.** 0 of 3 on day 11

**Q.** And the survivor count (dose: 40.0 mg/kg/injection, schedule: Q01DX010 (sc), vehicle: other)?
**A.** 0 of 3 on day 11

**Q.** For `CC(=O)[C@]1(O)Cc2c(O)c3c(c(O)c2[C@@H](OC2CC(N)C(O)C(C)O2)C1)C(=O)c1c(O)cccc1C3=O` (some centres not stated), which survivor count (dose: 1.0 mg/kg/injection, schedule: Q01DX010 (sc), vehicle: saline) is on record?
**A.** 1 of 3 on day 11

**Q.** And the survivor count (dose: 2.0 mg/kg/injection, schedule: Q01DX010 (sc), vehicle: saline)?
**A.** 0 of 3 on day 11

**Q.** For `OCCCN1CCCCC1CO` (configuration not stated), which survivor count (dose: 2400.0 mg/kg/injection, schedule: Q04DX003 (sc), vehicle: saline) is on record?
**A.** 1 of 6 on day 11

**Q.** How did the T/C (dose: 2400.0 mg/kg/injection, schedule: Q04DX003 (sc), vehicle: suspension in saline) turn out when `COCC(O)Cn1ccnc1[N+](=O)[O-]` (configuration not stated) was run?
**A.** 133 % of control

**Q.** How did the survivor count (dose: 800.0 mg/kg/injection, schedule: Q01DX010 (sc), vehicle: saline with Tween-80) turn out when `C[C@@H](CN1CC(=O)NC(=O)C1)N1CC(=O)NC(=O)C1` was run?
**A.** 0 of 3 on day 11

**Q.** `O=C1c2ccccc2C(=O)c2c(NCCNCCO)ccc(NCCNCCO)c21` was tested. Which survivor count (dose: 16.0 mg/kg/injection, schedule: Q01DX010 (sc), vehicle: water) did it give?
**A.** 0 of 3 on day 11

**Q.** And the survivor count (dose: 32.0 mg/kg/injection, schedule: Q01DX010 (sc), vehicle: water)?
**A.** 0 of 3 on day 11

**Q.** What about the survivor count (dose: 106.6 mg/kg/injection, schedule: Q04DX003 (ip), vehicle: water) of the same molecule?
**A.** 1 of 2 on day 11

**Q.** And the survivor count (dose: 106.6 mg/kg/injection, schedule: Q04DX003 (sc), vehicle: water)?
**A.** 1 of 3 on day 11

**Q.** Which survivor count (dose: 2400.0 mg/kg/injection, schedule: Q04DX003 (sc), vehicle: saline with Tween-80) does the source give for `CCCN1COC(OCC)C(C)(C)C1` (configuration not stated) here?
**A.** 0 of 6 on day 11

**Q.** `COC12C(COC(N)=O)C3=C(C(=O)C(C)=C(N)C3=O)N1CC1C2N1C` (configuration not stated) was tested. Which survivor count (dose: 16.0 mg/kg/injection, schedule: Q01DX010 (sc), vehicle: saline) did it give?
**A.** 0 of 6 on day 11 and 1 of 3 on day 11

**Q.** What about the survivor count (dose: 32.0 mg/kg/injection, schedule: Q01DX010 (sc), vehicle: saline) of the same molecule?
**A.** 0 of 3 on day 11 and 0 of 6 on day 11

**Q.** Which T/C (dose: 37.5 mg/kg/injection, schedule: Q04DX003 (sc), vehicle: Klucel (hydroxypropylcellulose) (HPC)) does the source give for `COc1ccc2[nH]c3c(c2c1)CCNC3CC(C)CCC=C(C)C` (configuration not stated) here?
**A.** 145 % of control

**Q.** And the T/C (dose: 300.0 mg/kg/injection, schedule: Q04DX003 (sc), vehicle: Klucel (hydroxypropylcellulose) (HPC))?
**A.** 126 % of control
